Data: PubChem BioAssay AID504444 (National Center for Advancing Translational Sciences (NCATS), 2011)
About 7,500 (2.1%) of roughly 360,000 compounds were called active. Inconclusive means that the source gave no clear call. Such entries were picked first, then a sample of the others. The call rests on the fitted dose curve; in most records, active means well fitted inhibition curve with a large enough effect; inconclusive means small, poorly fitted or top-dose-only effect, or effect the other way; inactive means flat fitted curve, though single readings scatter. Potencies of inconclusive entries are doubtful fits and often do not repeat.

Test: Nrf2 qHTS screen for inhibitors; further: nearly all actives have a fitted effect of over 60% in size
Conditions: A549 ARE-Fluc reporter, luciferase luminescence, 18-24 h; activity change, negative = inhibition: at 46 µM (top of the series)
How it was run: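 Reporter: ARE-Fluc in A549. Exposure: 18-24 h, 37 °C, 5% CO2, 5% FBS OPTI-MEM. Readouts: fluorescent cytotoxicity (CellTiter-Fluor), then luminescent Nrf2 signal after BugLite.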
On the % scale 0 is the no-effect control and ±100 the full control effect; potency means the concentration at half of the fitted maximal effect.

Structure (SMILES) | Potency | activity change, negative = inhibition
COc1ccc(OCC(=O)NC(=S)Nc2ccc3c4c(cccc24)CC3)cc1 | inconclusive: 29.1 µM [activator, single point] | 
CC(O)C(NS(=O)(=O)c1ccc(Cl)cc1)C(=O)OCC(=O)c1ccc2c(c1)NC(=O)CO2 (stereo unspecified) | inactive | 
CCOc1cccc2cc(-c3nc4sc5c(c4c(=O)[nH]3)CCC(C)C5)c(=O)oc12 (stereo unspecified) | inconclusive: 23.1 µM [activator, single point] | 
CC(C)Cn1c(-c2csc(C(C)C)c2)n[nH]c1=S | inconclusive: 29.1 µM [falling, single point] | 
Cc1ccc(NC(=O)CC2Nc3cccc4cccc(c34)NC2=O)cc1 (stereo unspecified) | inconclusive: 2.31 µM [activator, partial curve, poor fit] | 
O=C(COc1ccccc1F)Nc1ccc2c(c1)CCC2 | inconclusive: 23.1 µM [activator, single point] | 
COc1ccc(N(Cc2ccccc2)C(=O)c2nc(SC)ncc2Cl)cc1 | inconclusive: 29.1 µM [falling, single point] | 
COc1cccc(CNc2ccccn2)c1O | inconclusive: 25.9 µM [activator, partial curve, poor fit] | 
Cc1cc(C(=O)Nc2ccc3c(c2)OCO3)cs1 | inconclusive: 1.3 µM [activator, full curve] | 
Cc1ccc(-n2c(C)cc(=O)cc2C)cc1[N+](=O)[O-] | inconclusive: 23.1 µM [falling, single point] | 
COc1ccc2cc(CCNC(=O)c3cccs3)c(=O)[nH]c2c1 | inconclusive: 5.17 µM [activator, partial curve] | 
CC(C)C(NS(=O)(=O)c1ccccc1F)C(=O)N1CCc2ccccc2C1 (stereo unspecified) | inconclusive: 3.26 µM [falling, full curve] | 
O=c1c2c(nc3c(-c4ccc(Cl)cc4)c[nH]n13)CCCC2 | active: 7.94 µM | 
CCOC(=O)C1CCN(C(=O)c2cc3c(-c4ccc(OC)c(OC)c4)nn(C)c3s2)CC1 | inactive | 
COc1ccc(-c2noc(N3CCC(C(=O)Nc4ccc(C)c(F)c4)CC3)n2)cc1OC |  | inactive: 5.44% [at 9.27 µM]
COC(=O)[C@]1(CC(C)C)N[C@H](c2ccc(-c3ccc(OC)cc3)cc2)[C@@H]2C(=O)N(C)C(=O)[C@@H]21 | inconclusive: 18.4 µM [falling, partial curve, poor fit] | 
Cc1cc(C)cc(NC(=O)CSc2nc(=O)n3cc(C)ccc3n2)c1 | inconclusive: 18.4 µM [falling, partial curve] | 
CCCCC/C=C/C1=CC(=O)C[C@H](c2ccc(OC)c(OC)c2)C1 | inconclusive: 23.1 µM [falling, partial curve] | 
Cc1ccc(-c2cc3ncc(C#N)c(N)n3n2)cc1 | inconclusive: 5.8 µM [activator, full curve] | 
O=C(CN1CCCCCC1)Nc1nc2ccccc2s1 | inconclusive: 10.3 µM [activator, partial curve, poor fit] | 
Cn1c(-c2ccccc2)c(C(=O)CC#N)c2ccccc21 | inconclusive: 23.1 µM [activator, partial curve] | 

Structure (SMILES) | Potency | activity change, negative = inhibition
Cc1cccc(/C=N/NC(=O)c2ccccc2OCc2cccc(Br)c2)n1 | inconclusive: 29.1 µM [falling, single point] | 
COc1ccnc(Oc2ccccc2)c1C(=O)N/C=N/OCc1ccccc1F | inconclusive: 14.6 µM [falling, partial curve, poor fit] | 
Cc1cc(Cl)c(S(=O)(=O)NCC2CCCO2)cc1OCC(=O)NC1CCCCC1 (stereo unspecified) | inconclusive: 13 µM [falling, partial curve, poor fit] | 
CC1CN(c2nc3c(c(=O)[nH]c(=O)n3C)n2Cc2ccccc2F)CC(C)O1 (stereo unspecified) | inactive | 
CCOc1ccc(-c2cc(N)n(S(=O)(=O)c3ccc(OC)c(OC)c3)n2)cc1 | inconclusive: 32.6 µM [falling, partial curve, poor fit] | 
O=C1c2cccc3cc([N+](=O)[O-])cc(c23)C(=O)N1CC1CCCO1 (stereo unspecified) | inconclusive: 20.6 µM [falling, single point] | 
O=C1c2[nH]nc(-c3ccccc3O)c2C(c2cccc(Cl)c2)N1Cc1ccco1 (stereo unspecified) | inconclusive: 32.6 µM [falling, partial curve, poor fit] | 
NS(=O)(=O)c1cccc(NC(=O)CSc2nn(-c3ccccc3)c(=S)s2)c1 | inactive | 
CCCOc1cccc(C(=O)N(Cc2cc(OC)c(OC)c(OC)c2)C2CCS(=O)(=O)C2)c1 (stereo unspecified) | inactive | 
O=C(NCC1CCCO1)c1ccc(S(=O)(=O)N2CCC(c3nc4ccc(Cl)cc4[nH]3)CC2)cc1 (stereo unspecified) | inconclusive: 20.6 µM [falling, single point] | 
O=c1[nH]c(N/N=C/c2ccc(O)cc2)nc2ccccc12 | inconclusive: 5.17 µM [activator, full curve, poor fit] | 
Cc1ccc(Nc2nc(N)c([N+](=O)[O-])c(N3CCC(C)CC3)n2)cc1C | inactive | 
CC12C=CC(=O)C=C1CCC1C3CCC(O)(C(=O)CO)C3(C)CC(O)C12F (stereo unspecified) | active: 0.0103 µM | 
CCOC(=O)c1oc2ccccc2c1CSc1nnnn1-c1ccc(C)cc1 | inconclusive: 13 µM [falling, partial curve, poor fit] | 
CCc1ccc(-c2cn3nc(-c4ccccc4)cnc3n2)cc1 | inconclusive: 5.8 µM [falling, partial curve] | 
CCN(CC)c1ccc(/C=N/NC(=O)c2nnn(-c3nonc3N)c2C(C)C)c(O)c1 | inconclusive: 29.1 µM [falling, single point] | 
CCOC(=O)c1c(NC(=S)Nc2ccccc2)sc2c1CC(C)(C)SC2 | inconclusive: 29.1 µM [falling, single point] | 
CSc1nc2c(c(-c3ccc(O)cc3)c1C#N)CCC2 | inactive | 
COc1ccc(CCNC(=O)NCc2noc3ccc(C)cc23)c(OC)c1 | inactive | 
CCN(CC)c1cc2c(cc1F)c(=O)c(S(=O)(=O)c1ccccc1)cn2Cc1ccccc1 | inconclusive: 3.66 µM [falling, partial curve, poor fit] | 

Complete entries, looked up by structure:
`CC1CN(c2nc3c(c(=O)[nH]c(=O)n3C)n2Cc2ccccc2F)CC(C)O1` (stereo unspecified) is listed with Potency: inactive
`O=c1[nH]c(N/N=C/c2ccc(O)cc2)nc2ccccc12` is listed with Potency: inconclusive: 5.17 µM [activator, full curve, poor fit]
